About 22,000 (6.9%) of roughly 320,000 compounds were called active. Inconclusive results, whose numbers are uncertain, are shown with a selection of clear calls. The call rests on the fitted dose curve; in most records, active means well fitted inhibition curve with a large enough effect; inconclusive means small, poorly fitted or top-dose-only effect, or another doubt; inactive means no such curve, though single readings can be large or run the other way. Potencies beside an inconclusive call are fits to weak or partial responses and may not hold up.
Assay: Primary qHTS for delayed death inhibitors of the malarial parasite plastid, 96 hour incubation
Details: P. falciparum luciferase reporter growth; series mostly up to 28.7 µM
Summary of the method: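 Plates of compound plus infected erythrocytes (2% hematocrit, 0.05% parasitemia final) incubate 96 hours, 37 C, 5% CO2. Detection reagent added; reduced luminescence from the parasites' luciferase reporter flags inhibition.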
Potency means the concentration at half of the fitted maximal effect.

SMILES | Potency
COC(=O)c1ccccc1S(=O)(=O)N(Cc1ccco1)Cc1cc2cc(OC)ccc2[nH]c1=O | inactive
O=C(Cn1nnc(-c2ccccc2)n1)N/N=C/c1cccc([N+](=O)[O-])c1O | inconclusive: 0.828 µM [inhibitor, full curve]
CC1(C)C(=O)C2(CCCCC2)C(=O)OC1c1ccc(O)cc1 (centres undefined) | inconclusive: 11.7 µM [inhibitor, single point]
Nc1ccc2nn(-c3cc([N+](=O)[O-])ccc3O)nc2c1 | inactive
CC1CCCCN1C(=O)CSc1nnc2c(n1)[nH]c1ccc(F)cc12 (centres undefined) | inactive
O=C(CN1C(=O)CSc2ccc(S(=O)(=O)N3CCOCC3)cc21)NCc1ccc(Cl)cc1 | inconclusive: 4.65 µM [inhibitor, partial curve]
Cc1ccc(CS(=O)(=O)c2ncc(Cl)c(C(=O)Nc3nnc(C(C)C)s3)n2)cc1 | inconclusive: 11.7 µM [inhibitor, single point]
CC(C)(C)S(=O)(=O)c1cnc(N2CCCC2)nc1N | inactive
CCOC(=O)c1cnc2c(-c3ccccc3)c(-c3ccccc3)nn2c1C | inactive
Cc1cc(C(=O)NC2CC(C)(C)Cc3c2cnn3-c2ccc(F)cc2)no1 (centres undefined) | inactive
COCCCNC(=O)c1cccc2c(=O)c(C)c(-c3ccccc3)oc12 | inconclusive: 18.5 µM [inhibitor, single point]
CN(CC(=O)NC1CCN(Cc2ccccc2)CC1)S(=O)(=O)c1ccc(Cl)cc1 | inconclusive: 18.5 µM [inhibitor, single point]
Cc1cc(C(=O)Nc2cccc(NC(=O)c3ccco3)c2)ccc1[N+](=O)[O-] | inconclusive: 11.7 µM [inhibitor, single point]
COC(=O)C1=C(c2ccc(F)cc2OCc2ccccc2)C[C@@H]2CC[C@H]1N2C | inconclusive: 14.7 µM [inhibitor, single point]
Cc1ccc(CN(C#N)c2nc(C)cc(C)n2)cc1 | inconclusive: 6.57 µM [inhibitor, single point]
Cc1nn(-c2nc3ccccc3s2)c(N)c1Sc1ccc(F)cc1 | inconclusive: 18.5 µM [inhibitor, single point]
COc1cccc(CNC(=S)Nc2ccc(Cl)cc2C)c1 | inconclusive: 13.1 µM [inhibitor, partial curve, poor fit]
CC(/C=C/c1ccco1)=N/NC(=O)C1COc2ccccc2O1 (centres undefined) | inactive
CC(C)(C)c1cc(NC(=O)c2ccc(OC3CCCC3)cc2)no1 | active: 11.7 µM
CC(C)NC(=O)c1ccc(COCC(F)(F)C(F)F)cc1 | active: 13.1 µM
CCOC(=O)c1ccc(-c2ccc3[nH]c4ccccc4c(=O)c3c2)cc1F | active: 5.22 µM
Cc1ccc(C(=O)N2CC(C)OC(C)C2)cc1[N+](=O)[O-] (centres undefined) | inconclusive: 9.28 µM [inhibitor, single point]
Fc1cc2nccnc2cc1N1CCSCC1 | inconclusive: 7.38 µM [inhibitor, single point]
CCc1nc(SCC(=O)Nc2ccc([N+](=O)[O-])cc2)n[nH]1 | inactive
CC(C)C(NC(=O)c1ccc(F)cc1)C(=O)OCC(=O)N1CC(=O)Nc2ccccc21 (centres undefined) | inactive

SMILES | Potency
O=[N+]([O-])c1cccc(CN2CCN(Cc3ccco3)CC2)c1 | inconclusive: 13.1 µM [inhibitor, partial curve]
CN(C1CCCCC1)S(=O)(=O)c1ccc(NC(=O)c2ccco2)cc1 | inactive
CC(C)CN(C(=O)COC(=O)c1c2c(nc3ccccc13)CCC2)c1c(N)n(Cc2ccccc2)c(=O)[nH]c1=O | active: 6.57 µM
O=C(CS(=O)(=O)c1ccccc1)NCc1ccc(Cl)cc1 | inconclusive: 10.4 µM [inhibitor, single point]
C=CCn1c(O)c(N=NC(=O)c2ccccc2NS(=O)(=O)c2cccs2)c2ccccc21 | inconclusive: 10.4 µM [inhibitor, partial curve, poor fit]
Cn1ncc(Cl)c1C(=O)N1CCN(c2cccc(Cl)c2)CC1 | inconclusive: 18.5 µM [inhibitor, single point]
Cc1ccccc1-c1nc(CS(=O)(=O)CC(=O)NCCCN2CC(C)CC(C)C2)c(C)o1 (centres undefined) | inactive
COc1cc(-c2nn3c(-c4cccc(C)c4)nnc3s2)cc(OC)c1OC | inconclusive: 18.5 µM [inhibitor, single point]
N#Cc1cc(C(=O)c2cc(Br)ccc2O)cn(C2CCCCC2)c1=O | active: 1.04 µM
Cc1cc(C)nc(NS(=O)(=O)c2ccc(NC(=S)NC(=O)c3cccnc3)cc2)n1 | inconclusive: 2.62 µM [inhibitor, partial curve, poor fit]
Cc1ccccc1CN1CCC(CNC(=O)Nc2ccc(F)cc2F)CC1 | inconclusive: 2.62 µM [inhibitor, partial curve]
Nc1nsc2ccccc12 | inactive
CC(C)Cn1c(N)c(C(=O)COC(=O)c2cc(C(F)(F)F)nc3c(C(F)(F)F)cccc23)c(=O)n(C)c1=O | inactive
COc1ccc(NS(=O)(=O)c2ccc(NC(=O)c3ccccc3Br)cc2)nn1 | inconclusive: 16.5 µM [inhibitor, single point]
Cn1c(SCC2CCCCC2)nnc1-c1ccncc1 | inconclusive: 0.147 µM [inhibitor, full curve, poor fit]
Cn1c(CNc2ccccn2)c(C#N)c2ccccc21 | inconclusive: 13.1 µM [inhibitor, single point]
COc1ccc(C(c2oc(CO)cc(=O)c2O)c2oc(CO)cc(=O)c2O)cc1 | inconclusive: 9.28 µM [inhibitor, partial curve, poor fit]
Cc1ccn2c(NC3CCCC3)c(-c3ccncc3)nc2c1 | inconclusive: 2.33 µM [inhibitor, full curve, poor fit]
O=C1C(Cl)=C(N2CCCC2)C(=O)N1c1ccc(F)cc1 | inactive
O=C(C1CCCN(Cc2cc(Br)ccc2O)C1)N1CCCCC1 (centres undefined) | inconclusive: 10.4 µM [inhibitor, single point]
Nc1ccccc1C(=O)NC12CC3CC(CC(C3)C1)C2 | inconclusive: 18.5 µM [inhibitor, single point]
O=S(=O)(/N=C(/NS(=O)(=O)c1ccccc1)c1ccccc1)c1ccccc1 | inactive
CCCCOc1ccc(C(=O)NCC(=O)NCCOc2ccccc2)cc1 | inactive
COc1ccccc1NC(=S)NC1CC2CCC1C2 (centres undefined) | inconclusive: 18.5 µM [inhibitor, single point]
C/C(CC(=O)NC1CCCC1)=N\NC(=O)c1ccc([N+](=O)[O-])c(Cl)c1 | inactive

Grouped by structure: the entries above containing bromine (three)
SMILES | Potency
N#Cc1cc(C(=O)c2cc(Br)ccc2O)cn(C2CCCCC2)c1=O | active: 1.04 µM
COc1ccc(NS(=O)(=O)c2ccc(NC(=O)c3ccccc3Br)cc2)nn1 | inconclusive: 16.5 µM [inhibitor, single point]
O=C(C1CCCN(Cc2cc(Br)ccc2O)C1)N1CCCCC1 (centres undefined) | inconclusive: 10.4 µM [inhibitor, single point]

Additional results.

SMILES | Potency
C=C(C)c1cccc(C(C)(C)NC(=O)N2CCCC(C)C2)c1 (centres undefined) | inconclusive: 11.7 µM [inhibitor, single point]
COc1cc2nc(SCC(=O)NCCc3ccccc3)n(Cc3ccco3)c(=O)c2cc1OC | inconclusive: 18.5 µM [inhibitor, single point]
Cc1ccc(CN2C(=O)C(CC(C)C)Nc3ncnc(N4CCN(c5ccccn5)CC4)c32)cc1 (centres undefined) | inconclusive: 3.29 µM [inhibitor, partial curve, poor fit]
CCCOC(=O)c1ccc(Oc2cn[nH]c2-c2ccc(OCC(=O)NN)cc2O)cc1 | active: 9.28 µM
C/C(=N\NC(=O)c1ccc(N2CCCC2=O)cc1)c1ccccc1 | inactive
O=C(Nc1cc(SCC(O)CO)cc([N+](=O)[O-])c1)c1ccc(-n2cnnn2)cc1 (centres undefined) | inactive
CC(C)(C)NCc1cc(Cl)ccc1OCc1cccs1 | active: 9.28 µM
CCOc1cccc2sc(N(CCN(C)C)C(=O)c3ccc4c(c3)OCCO4)nc12 | inconclusive: 3.7 µM [inhibitor, partial curve]
CN(C)C(=O)CSc1nc2ccccc2n1Cc1ccccc1 | inconclusive: 18.5 µM [inhibitor, single point]
Cc1nc2nc(SCC(=O)NCc3ccco3)nn2c(C)c1Cc1c(F)cccc1Cl | inconclusive: 0.0522 µM [inhibitor, full curve, poor fit]
CCc1ccccc1N1C(=O)[C@@H]2Cc3ccccc3CN2C1=O | inactive
Cc1cc(C(=O)Nc2cc(Br)ccc2O)on1 | inactive
COc1ccc(-c2cnn3c(N)c(S(=O)(=O)c4ccccc4)cnc23)cc1 | inconclusive: 18.5 µM [inhibitor, single point]
N#Cc1ccc(OCC(=O)Nc2cccc(S(=O)(=O)NC3=NCCCCC3)c2)cc1 | inactive
CCOC(=O)C1CCCN(C(=O)c2ccccc2Oc2ccccc2)C1 (centres undefined) | active: 1.31 µM
Cc1ccc(Nc2nc3nonc3[nH]c2=O)cc1 | inactive
Cc1ccc(OCCSc2nc(N)cc(N)n2)cc1 | inconclusive: 4.65 µM [inhibitor, single point]
CC(=O)c1ccc(OCC(O)CN2CCC(C)CC2)cc1 (centres undefined) | inconclusive: 18.5 µM [inhibitor, partial curve, poor fit]
Cc1ccc(N2C(=O)C3C4C=CC(CC4)C3C2=O)cc1[N+](=O)[O-] (centres undefined) | inactive
COc1ccccc1NS(=O)(=O)c1cccc(C(=O)NCC(c2ccco2)N2CCCCC2)c1 (centres undefined) | inconclusive: 3.29 µM [inhibitor, partial curve]
COc1ccccc1-c1nnc(NC(C)=O)s1 | active: 7.38 µM
O=C(COC(=O)CCc1nc2ccccc2c(=O)[nH]1)Nc1ccc(Cl)cn1 | inactive
Clc1ccc2nc3ccccn3c2c1 | inactive
C/C(=N\NC(=S)NCc1ccccc1)c1ccc(Br)cc1 | inconclusive: 2.33 µM [inhibitor, full curve, poor fit]

— PubChem BioAssay AID504834 (National Center for Advancing Translational Sciences (NCATS), 2011)
